Among the data in paper PMC10626418 are binding values, retold here.

This experiment concerns the target recombinant murine I-E^k refolded with a cleavable placeholder peptide (I-E^k/ANP 2x6His) (mouse). Briefly: spectrophotometry after peptide exchange (280 to 488 or 555 or 640 nm ratio); placeholder peptide of refolded I-E^k exchanged for the dye-conjugated peptide under acidic conditions (pH 5.1, 0.2 M citric acid buffer) over 3 days; both purified.

No constants are given. Whether binding was seen depends on the method and setting. A result given as binding can be weak or reduced; the word gives no strength.

In the case of HPPHIEIQMLKNGKKIPGGSC (C-terminal cysteine conjugated with an Alexa Fluor maleimide dye) [β2m endogenous peptide with C-terminal GGSC linker, fluorophore-conjugated], the binding entry is “binds”.
